# Primary screen of a compound library

Source: ChEMBL document CHEMBL3988442, “University of Dundee, Small-Polar-MMV Screening Library” (2021).

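Whole-parasite assay of Trypanosoma brucei over 72 hours; the read-out is not stated. Tested at 30 µM. The record gives no direction; compounds that gave an IC50 in retests scored well above the rest, so higher reads as stronger inhibition. Values scatter widely below zero; nearly all retest evidence comes from the higher of the two concentrations used. Of about 64,000 compounds tested this way, about 940 (1.5%) reached 50% or more in at least one test.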

The filed quantity is “Percent Effect” (%). The controls that fix the scale are not given in the record; negative values are as filed. Compounds were drawn at random from those tested, without regard to their results.

With Cc1ccccc1-n1cc(CNc2ncnc3c2CCNCC3)cn1 the screen gave -25%.
With Cc1nnc(NC(=O)CCc2c(C)nn3cnnc3c2C)s1 the screen gave -2.402%.
With CCOCCCNc1nc2c(s1)c(C)nn2C the screen gave -15.92%.
With COCCNC(=O)N1CC(Cc2ccccc2F)C1 the screen gave -1.562%.
With Cc1ccc(CNC2(Cc3cc(-c4ccc(F)cc4)on3)COC2)o1 the screen gave 3.792%.
With Cc1ccc(-n2cc(CN3CCOCC(CN(C)C)C3)cn2)cc1C (stereo not drawn) the screen gave 98.04%.
With Cn1nc2c(cc1=O)CN(CCCOc1ccc(C#N)cc1)CC2 the screen gave 16.1%.
With Cc1ccc(CNC(=O)CN2CCOC(Cn3cncn3)C2)s1 (stereo not drawn) the screen gave 12.53%.
With c1cnnc(N2CCCC(NCc3cccc4c3OCO4)C2)c1 (stereo not drawn) the screen gave 4.242%.
With Cc1csc(N2CCN(Cc3nccn3C)CC2C)n1 (stereo not drawn) the screen gave -16.18%.
With CN(Cc1noc(C2CC2)n1)C1CCCN(c2cccnn2)C1 (stereo not drawn) the screen gave -26.28%.
With CCN(CC)c1nc2sc(C(=O)N3CCNC(=O)C3)cc2s1 the screen gave -113.5%.
With CCOc1ccc(Cl)cc1C(C(=O)O)N1CCOCC1 (stereo not drawn) the screen gave -4.97%.
With CCOc1ccc(C#N)cc1NCC(=O)NC(=O)NC the screen gave -6.863%.
With CC(NCc1ccncc1)c1cc(F)ccc1N1CCN(C)CC1 (stereo not drawn) the screen gave 6.127%.
With CCN(C(=O)c1nc2c(s1)CCCN2C)C(C)C the screen gave -10.16%.
With O=c1cc(CN(CCO)C2CC2)nc2ccccn12 the screen gave -22.75%.
With Cc1cccc2c1nc(COCC(=O)O)n2-c1ccsc1 the screen gave -42.35%.
With Cc1ccccc1CN(Cc1ccccn1)C(=O)CNS(C)(=O)=O the screen gave 10.22%.
With O=C(NCCNC(=O)c1scnc1Cl)c1ccoc1 the screen gave -12.02%.
With COc1c(CNCc2ccc(N3CCCC3)nc2)c(C(C)C)nn1C the screen gave 8.977%.
With CCCS(=O)(=O)N1CCn2cc(CNc3ccccn3)nc2C1.O=C(O)C(F)(F)F the screen gave 16.97%.
With CCCS(=O)(=O)NCCn1ccc(-c2cccs2)n1 the screen gave -20.63%.
With CC(NC(=O)c1cccs1)C(=O)NS(=O)(=O)c1ccc(C#N)cc1 (stereo not drawn) the screen gave 2.516%.
With COC1CCN(c2ccc(F)cc2CN(C)C(=O)c2cc[nH]n2)CC1 the screen gave -49.26%.
With COc1ccc(S(=O)(=O)NCC(c2cccn2C)N(C)C)c(C)c1 (stereo not drawn) the screen gave 3.844%.
With O=C(O)C(F)(F)F.[H][C@@]12COC[C@]1(COCc1csc(C)n1)CN(Cc1cc(C)on1)C2 the screen gave -12.91%.
With CC(C)[C@@H]1CN(C(=O)c2ccc3c(c2)CCCO3)C[C@H]1NS(C)(=O)=O the screen gave -2.953%.
With CS(=O)(=O)c1cc(Cl)cnc1C1CCN(C(=O)C2CCCO2)CC1 (stereo not drawn) the screen gave 7.009%.
With Cc1ccc(-c2cc(C(=O)NCCN3CCOCC3)n[nH]2)s1 the screen gave 2.823%.
With Cc1nc(C(C)C)sc1C(=O)N1CCC(N2CCSCC2)CC1 the screen gave -41.86%.
With COCC(C)(CCO)NC(=O)Nc1cccc(F)c1C (stereo not drawn) the screen gave -5.581%.
With COc1ccnc(N2CCN(Cc3ncc(C(C)(C)C)o3)CC2)n1 the screen gave -35.56%.
With CNc1[nH]nc(N)c1NC(=O)c1ccccc1 the screen gave -49.31%.
With Cc1oc(-c2ccsc2)nc1CC(=O)NCC(C)(C)CN(C)C the screen gave -4.367%.
With CCc1nnc(C(C)N(C)Cc2c(C)nn(-c3ccccc3)c2C)o1 (stereo not drawn) the screen gave -25.72%.
With CN(C)c1nc(-c2ccncc2)nc2c1CCN(C(=O)[C@H](N)CO)C2 the screen gave -38.13%.
With COc1cc(CCC(=O)NC2CCCN(C)C2)ccc1OCC(F)(F)F (stereo not drawn) the screen gave 18.71%.

The first 2 entries again:

structure	Percent Effect
Cc1ccccc1-n1cc(CNc2ncnc3c2CCNCC3)cn1	-25%
Cc1nnc(NC(=O)CCc2c(C)nn3cnnc3c2C)s1	-2.402%